Consider 1 molecule from paper PMC9502615.

The experiment concerns the target T1, transforming growth factor-activated kinase 1 (human (endogenous in HCC cells)) (UniProt O43318).
T1 sequence: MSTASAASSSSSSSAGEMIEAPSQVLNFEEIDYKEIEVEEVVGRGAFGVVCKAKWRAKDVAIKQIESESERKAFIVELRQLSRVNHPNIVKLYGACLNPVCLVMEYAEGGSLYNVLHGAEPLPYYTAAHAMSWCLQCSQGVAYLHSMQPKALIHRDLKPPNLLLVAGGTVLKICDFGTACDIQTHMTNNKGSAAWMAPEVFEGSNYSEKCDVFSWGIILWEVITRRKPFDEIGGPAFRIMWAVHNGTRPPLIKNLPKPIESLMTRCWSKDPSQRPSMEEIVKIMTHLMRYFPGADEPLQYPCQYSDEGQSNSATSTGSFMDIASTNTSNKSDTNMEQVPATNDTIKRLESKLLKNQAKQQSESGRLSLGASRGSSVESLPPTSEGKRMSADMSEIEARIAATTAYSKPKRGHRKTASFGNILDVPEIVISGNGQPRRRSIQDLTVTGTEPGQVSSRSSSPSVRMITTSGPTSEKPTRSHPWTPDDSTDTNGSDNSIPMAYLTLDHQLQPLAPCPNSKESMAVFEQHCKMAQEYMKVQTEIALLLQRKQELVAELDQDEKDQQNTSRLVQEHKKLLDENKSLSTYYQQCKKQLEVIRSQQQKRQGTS
Kind of experiment: co-IP; 1 x 10^7 HCC cells lysed in IP lysis buffer (50 mM Tris-HCl, 150 mM NaCl, 1% Triton X-100, 1 mM EDTA, 10% glycerol, protease inhibitors, pH 7.4); indicated antibodies overnight at 4 °C, protein G agarose; five washes with 50 mM Tris-HCl, 300 mM NaCl, 1% Triton X-100, 1 mM EDTA, pH 7.4.

Results are given in words; binding and its absence hold for the method and conditions named. In cells and extracts the contact can be indirect. Some results given as binding are weak or reduced against the parent protein; the word gives no strength.

B1: transforming growth factor-activated kinase-binding protein 3 (protein, UniProt Q8N5C8 1-712)
chain: MAQSSPQLDIQVLHDLRQRFPEIPEGVVSQCMLQNNNNLEACCRALSQESSKYLYMEYHSPDDNRMNRNRLLHINLGIHSPSSYHPGDGAQLNGGRTLVHSSSDGHIDPQHAAGKQLICLVQEPHSAPAVVAATPNYNPFFMNEQNRSAATPPSQPPQQPSSMQTGMNPSAMQGPSPPPPPPSYMHIPRYSTNPITVTVSQNLPSGQTVPRALQILPQIPSNLYGSPGSIYIRQTSQSSSGRQTPQSTPWQSSPQGPVPHYSQRPLPVYPHQQNYQPSQYSPKQQQIPQSAYHSPPPSQCPSPFSSPQHQVQPSQLGHIFMPPSPSTTPPHPYQQGPPSYQKQGSHSVAYLPYTASSLSKGSMKKIEITVEPSQRPGTAINRSPSPISNQPSPRNQHSLYTATTPPSSSPSRGISSQPKPPFSVNPVYITYTQPTGPSCTPSPSPRVIPNPTTVFKITVGRATTENLLNLVDQEERSAAPEPIQPISVIPGSGGEKGSHKYQRSSSSGSDDYAYTQALLLHQRARMERLAKQLKLEKEELERLKSEVNGMEHDLMQRRLRRVSCTTAIPTPEEMTRLRSMNRQLQINVDCTLKEVDLLQSRGNFDPKAMNNFYDNIEPGPVVPPKPSKKDSSDPCTIERKARRISVTSKVQADIHDTQAAAADEHRTGSTQSPRTQPRDEDYEGAPWNCDSCTFLNHPALNRCEQCEMPRYT
Regarding B1, the binding entry is “binds”.
